Experimental data: PubChem BioAssay AID504791 (Drosophila RNAi Screening Center, 2011)
The deposit covers about 23,000 reagents; shown is a random part of those that have a named target and a result. In the full data, 199 (0.86%) were called active. 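Plate-scaled ratios behind the calls are not deposited; printed light signals are raw; many rows marked increased or decreased are still called inactive.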 Unmarked entries are inactive. Names joined by + are all predicted targets of the reagent.

Purpose: 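Factors in Argonaute-based small RNA production and activity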 (primary screen)
System: Drosophila S2-derived reporter cells
Reagents: long dsRNA against Drosophila genes, about 150-250 ng dsRNA per well (siRNA assay); about 80-120 ng (miRNA assay)
Timing: about 5 days (siRNA assay); about 4 days (miRNA assay)
Treatment: copper sulfate induction of reporters: 25 µM (siRNA assay); 200 mM stated (miRNA assay), 1-2 days before reading
Measurement: 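Per-well ratio of Renilla over firefly light, expressed relative to that plate's average ratio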
Direction: siRNA reporter hit score: higher = 3 marks a strong hit with raised ratio; -3 a strong hit with lowered ratio
Rule for the call: 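a well was a first-pass pick when its plate-scaled ratio rose above 1.5 (siRNA assay) or 1.6 (miRNA assay), or dropped below 0.6; a gene counted only if two separate dsRNAs agreed on retest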

gene | amplicon | siRNA reporter hit score | stable siRNA reporter change | miRNA reporter change | stable assay Renilla, run 1 (luminescence) | stable assay firefly, run 1 (luminescence)
pwn | DRSC06035 | – | – | – | 4032 | 3.23e5
l(3)psg2 | DRSC10484 | – | – | – | 9566 | 5.32e5
Bet3 | DRSC10388 | – | – | – | 6798 | 4.18e5
Gss1 + Gss2 | DRSC20008 | – | – | – | 4532 | 4.01e5
Gss1 + Gss2 | DRSC21539 | – | – | – | 10061 | 5.11e5
CG31288 | DRSC14667 | – | – | – | 8312 | 4.11e5
CG32983 | DRSC22367 | – | – | – | 10303 | 7.37e5
Gabat | DRSC10846 | – | – | – | 6700 | 3.40e5
fh | DRSC18430 | – | – | – | 4915 | 4.51e5
Rbcn-3A | DRSC18314 | – | – | – | 6179 | 2.95e5
GMF | DRSC01928 | – | – | – | 47224 | 1.67e6
CG17121 | DRSC15176 | – | – | – | 6792 | 2.87e5
CHKov2 | DRSC14262 | – | – | – | 12506 | 6.59e5
BOD1 | DRSC15824 | -3 | – | – | 8334 | 3.08e5
BOD1 | DRSC24273 | – | – | reporter ratio raised past the hit cutoff (active) | – | –
Iswi | DRSC07446 | – | reporter ratio raised past the hit cutoff (active) | – | 7083 | 2.05e5
Drat | DRSC06600 | – | – | – | 8855 | 5.19e5
CG13231 | DRSC06351 | – | – | – | 6367 | 5.07e5
CG30413 | DRSC04001 | – | – | – | 5403 | 3.87e5
Sik2 | DRSC18522 | – | – | – | 8279 | 3.31e5
Cht12 | DRSC03844 | – | – | – | 5756 | 4.01e5

2 consecutive reagents from above:
gene | amplicon | siRNA reporter hit score | stable siRNA reporter change | miRNA reporter change | stable assay Renilla, run 1 (luminescence) | stable assay firefly, run 1 (luminescence)
GMF | DRSC01928 | – | – | – | 47224 | 1.67e6
CG17121 | DRSC15176 | – | – | – | 6792 | 2.87e5

Next records:
gene | amplicon | siRNA reporter hit score | stable siRNA reporter change | miRNA reporter change | stable assay Renilla, run 1 (luminescence) | stable assay firefly, run 1 (luminescence)
angel | DRSC04670 | – | – | – | 7468 | 6.67e5
angel | DRSC21326 | – | – | – | 10737 | 6.58e5
Atg7 | DRSC05741 | – | – | – | 6031 | 4.64e5
Atg7 | DRSC06937 | – | – | – | 6999 | 3.86e5
CG15870 | DRSC06588 | – | – | – | 5567 | 3.12e5
CG6497 | DRSC10654 | – | – | – | 7582 | 4.39e5
CG6497 | DRSC21469 | – | – | – | 9153 | 7.43e5
sbm | DRSC20185 | – | – | – | 4288 | 3.99e5
CG3815 | DRSC18324 | – | – | – | 9256 | 4.94e5
inc | DRSC17954 | – | – | – | 8029 | 4.88e5
inc | DRSC18512 | – | – | – | 4519 | 3.17e5
E(Pc) | DRSC05281 | – | – | – | 5599 | 3.96e5
E(Pc) | DRSC07408 | – | – | – | 5224 | 3.45e5
ChAT | DRSC13314 | – | – | – | 4024 | 3.84e5
ChAT | DRSC16609 | – | – | – | 7610 | 3.07e5
ChAT | DRSC22755 | – | – | – | 3652 | 3.34e5
CG1143 | DRSC08188 | – | – | – | 5348 | 3.41e5
CG7886 | DRSC16333 | – | – | – | 7427 | 3.76e5
CG3557 | DRSC00614 | – | – | – | 12065 | 6.77e5
CG11378 | DRSC18627 | – | – | – | 5730 | 4.24e5
Tom | DRSC11306 | – | – | – | 10690 | 4.27e5
CG4783 | DRSC15644 | – | – | – | 4372 | 4.17e5
Zpr1 | DRSC18432 | – | – | – | 7296 | 4.48e5
Fem-1 | DRSC07322 | – | – | – | 6398 | 3.08e5
Clbn | DRSC14404 | – | – | – | 8423 | 4.60e5
Osi2 | DRSC12174 | – | – | – | 6459 | 3.08e5
peng | DRSC20583 | – | – | – | 5722 | 4.55e5
CG9514 | DRSC20190 | – | – | – | 4987 | 2.94e5
CG9514 | DRSC20191 | – | – | – | 5231 | 3.30e5
Drep2 | DRSC07528 | – | – | – | 8157 | 4.38e5
CG17778 | DRSC18504 | – | – | – | 7662 | 6.63e5
r-cup | DRSC20475 | – | – | – | 6003 | 2.89e5
l(3)04053 | DRSC11640 | – | – | – | 4820 | 3.13e5
IntS1 | DRSC04343 | -3 | – | – | 2.32e5 | 2.72e6
CG33017 | DRSC06573 | – | – | – | 7091 | 3.41e5
CG33017 | DRSC06574 | – | – | – | 6263 | 3.16e5
